Experimental data as given in the supplement of paper PMC12823440, “Inhibitors supercharge kinase turnover through native proteolytic circuits” (Nature, 2025).
Where a name gives a salt, the structure may show the parent alone. Some of the results follow. Hit calls seldom repeat between salt and free forms of one compound.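 In K562 cells expressing nanoluciferase-fused kinases, luminescence was recorded at 4 h intervals between 2 and 18 h, normalized as percent of control with DMSO at 100% and a positive control at 0%. A significant (2 sigma) signal drop marks a time point as decreased. The authors' rule for a hit is not shown and takes in more than the number of time points.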

Amino acid sequences for entries named in this document (tags omitted). A change or cut given only in a name is not applied to a line headed by its entry.
UniProt P28482, whole entry: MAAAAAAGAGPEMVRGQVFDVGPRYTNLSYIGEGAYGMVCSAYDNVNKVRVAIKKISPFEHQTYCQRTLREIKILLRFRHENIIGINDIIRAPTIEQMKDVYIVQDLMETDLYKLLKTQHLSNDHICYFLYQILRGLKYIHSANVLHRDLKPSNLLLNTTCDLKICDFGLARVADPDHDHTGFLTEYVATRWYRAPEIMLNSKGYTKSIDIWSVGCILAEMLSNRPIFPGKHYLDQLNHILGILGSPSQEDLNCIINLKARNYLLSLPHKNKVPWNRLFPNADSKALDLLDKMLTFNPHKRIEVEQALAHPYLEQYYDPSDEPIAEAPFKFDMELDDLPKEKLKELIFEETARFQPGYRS
UniProt P31152, whole entry: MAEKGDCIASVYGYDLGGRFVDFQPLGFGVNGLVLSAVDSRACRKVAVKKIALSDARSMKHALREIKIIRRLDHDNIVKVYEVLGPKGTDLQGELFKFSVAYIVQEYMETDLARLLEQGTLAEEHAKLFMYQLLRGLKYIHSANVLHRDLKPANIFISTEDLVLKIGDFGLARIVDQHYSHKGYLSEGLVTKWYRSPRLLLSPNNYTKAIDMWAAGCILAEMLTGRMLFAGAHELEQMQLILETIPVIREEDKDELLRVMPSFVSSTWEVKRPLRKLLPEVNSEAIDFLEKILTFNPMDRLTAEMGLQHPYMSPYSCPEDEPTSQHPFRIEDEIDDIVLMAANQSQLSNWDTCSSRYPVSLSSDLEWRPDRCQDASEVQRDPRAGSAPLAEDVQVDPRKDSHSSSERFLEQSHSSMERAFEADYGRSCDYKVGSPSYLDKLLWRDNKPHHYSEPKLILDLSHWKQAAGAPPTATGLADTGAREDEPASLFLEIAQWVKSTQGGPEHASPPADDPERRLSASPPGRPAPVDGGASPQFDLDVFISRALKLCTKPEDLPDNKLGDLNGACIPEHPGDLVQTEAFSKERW
UniProt P49137, whole entry, looked up: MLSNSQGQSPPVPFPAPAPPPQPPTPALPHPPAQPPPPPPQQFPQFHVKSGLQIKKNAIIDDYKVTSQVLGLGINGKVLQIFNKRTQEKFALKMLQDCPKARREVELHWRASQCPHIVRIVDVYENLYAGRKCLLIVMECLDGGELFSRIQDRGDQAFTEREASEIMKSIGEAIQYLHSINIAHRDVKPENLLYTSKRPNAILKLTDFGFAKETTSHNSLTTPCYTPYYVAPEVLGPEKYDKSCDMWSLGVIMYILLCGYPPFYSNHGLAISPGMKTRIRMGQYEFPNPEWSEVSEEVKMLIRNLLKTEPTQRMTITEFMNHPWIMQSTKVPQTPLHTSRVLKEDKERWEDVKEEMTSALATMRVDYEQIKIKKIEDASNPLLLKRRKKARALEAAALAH
UniProt Q9BUB5: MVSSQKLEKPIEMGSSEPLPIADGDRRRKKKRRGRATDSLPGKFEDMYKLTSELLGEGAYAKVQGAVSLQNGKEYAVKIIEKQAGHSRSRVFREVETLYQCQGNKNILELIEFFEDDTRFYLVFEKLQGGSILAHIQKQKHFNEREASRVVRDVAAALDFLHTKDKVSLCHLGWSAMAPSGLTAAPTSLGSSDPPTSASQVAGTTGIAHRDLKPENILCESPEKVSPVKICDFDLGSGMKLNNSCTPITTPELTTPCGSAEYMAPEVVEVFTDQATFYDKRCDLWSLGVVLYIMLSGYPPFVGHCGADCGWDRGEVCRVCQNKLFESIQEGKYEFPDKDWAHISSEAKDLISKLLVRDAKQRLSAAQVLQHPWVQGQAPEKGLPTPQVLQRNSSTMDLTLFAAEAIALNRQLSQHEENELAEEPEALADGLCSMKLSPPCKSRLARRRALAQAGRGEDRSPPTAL
UniProt Q16620, whole entry, looked up: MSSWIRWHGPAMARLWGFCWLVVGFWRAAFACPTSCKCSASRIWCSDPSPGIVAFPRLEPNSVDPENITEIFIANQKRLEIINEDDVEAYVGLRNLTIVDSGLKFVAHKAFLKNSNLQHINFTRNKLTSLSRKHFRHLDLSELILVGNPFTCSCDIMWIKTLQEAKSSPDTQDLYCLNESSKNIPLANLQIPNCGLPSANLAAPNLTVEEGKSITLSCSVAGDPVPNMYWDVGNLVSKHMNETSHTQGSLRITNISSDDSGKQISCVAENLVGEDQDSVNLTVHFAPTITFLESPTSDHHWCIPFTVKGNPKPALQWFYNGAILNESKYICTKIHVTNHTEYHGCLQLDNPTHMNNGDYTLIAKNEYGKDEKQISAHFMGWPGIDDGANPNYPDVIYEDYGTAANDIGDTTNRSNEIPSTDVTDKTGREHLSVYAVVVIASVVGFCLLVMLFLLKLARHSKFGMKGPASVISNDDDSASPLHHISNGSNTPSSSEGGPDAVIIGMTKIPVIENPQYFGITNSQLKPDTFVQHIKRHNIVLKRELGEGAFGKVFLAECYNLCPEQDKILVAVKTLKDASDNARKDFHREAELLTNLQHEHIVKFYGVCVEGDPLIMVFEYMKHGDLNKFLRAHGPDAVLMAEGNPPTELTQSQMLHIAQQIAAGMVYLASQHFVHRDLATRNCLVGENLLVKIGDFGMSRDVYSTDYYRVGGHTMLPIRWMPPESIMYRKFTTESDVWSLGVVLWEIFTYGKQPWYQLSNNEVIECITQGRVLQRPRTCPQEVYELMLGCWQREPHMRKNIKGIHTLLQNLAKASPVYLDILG
UniProt Q16288, whole entry, looked up: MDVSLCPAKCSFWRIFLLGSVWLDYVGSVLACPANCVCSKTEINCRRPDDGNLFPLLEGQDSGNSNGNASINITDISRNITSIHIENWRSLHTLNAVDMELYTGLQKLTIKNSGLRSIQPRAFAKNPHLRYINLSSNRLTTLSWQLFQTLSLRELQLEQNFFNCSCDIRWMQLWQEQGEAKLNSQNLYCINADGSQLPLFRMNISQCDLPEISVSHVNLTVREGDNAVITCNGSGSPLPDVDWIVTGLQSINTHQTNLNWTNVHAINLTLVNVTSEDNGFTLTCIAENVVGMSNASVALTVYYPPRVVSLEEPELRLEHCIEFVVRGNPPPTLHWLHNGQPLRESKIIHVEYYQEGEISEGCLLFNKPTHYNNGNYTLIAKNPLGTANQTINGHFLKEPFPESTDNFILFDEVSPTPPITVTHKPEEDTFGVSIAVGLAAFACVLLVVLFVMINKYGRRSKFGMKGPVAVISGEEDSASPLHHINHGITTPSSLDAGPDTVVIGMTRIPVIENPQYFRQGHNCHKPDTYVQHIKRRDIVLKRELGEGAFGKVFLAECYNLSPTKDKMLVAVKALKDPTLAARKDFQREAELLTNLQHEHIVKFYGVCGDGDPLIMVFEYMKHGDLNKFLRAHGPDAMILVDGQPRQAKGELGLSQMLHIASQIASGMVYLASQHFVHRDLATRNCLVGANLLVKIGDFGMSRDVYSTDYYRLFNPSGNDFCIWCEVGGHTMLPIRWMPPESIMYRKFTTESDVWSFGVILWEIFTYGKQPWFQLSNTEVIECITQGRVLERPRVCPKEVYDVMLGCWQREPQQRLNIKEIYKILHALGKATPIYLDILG
UniProt O96013: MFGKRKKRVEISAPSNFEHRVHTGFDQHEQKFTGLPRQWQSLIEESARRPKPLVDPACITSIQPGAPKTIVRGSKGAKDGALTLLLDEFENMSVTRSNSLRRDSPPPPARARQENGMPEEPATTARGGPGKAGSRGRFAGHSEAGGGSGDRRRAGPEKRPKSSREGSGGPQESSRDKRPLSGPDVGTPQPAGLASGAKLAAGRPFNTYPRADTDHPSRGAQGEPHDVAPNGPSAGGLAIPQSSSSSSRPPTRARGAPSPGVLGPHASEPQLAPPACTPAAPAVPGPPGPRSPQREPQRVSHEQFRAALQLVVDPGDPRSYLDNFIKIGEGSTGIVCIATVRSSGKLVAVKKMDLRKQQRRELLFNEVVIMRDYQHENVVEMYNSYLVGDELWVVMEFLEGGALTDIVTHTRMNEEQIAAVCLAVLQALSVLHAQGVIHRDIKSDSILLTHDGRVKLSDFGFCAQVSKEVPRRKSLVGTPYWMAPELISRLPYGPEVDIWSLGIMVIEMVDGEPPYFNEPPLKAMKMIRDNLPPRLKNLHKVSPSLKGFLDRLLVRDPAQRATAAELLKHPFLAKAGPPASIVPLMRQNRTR
UniProt Q96KB5: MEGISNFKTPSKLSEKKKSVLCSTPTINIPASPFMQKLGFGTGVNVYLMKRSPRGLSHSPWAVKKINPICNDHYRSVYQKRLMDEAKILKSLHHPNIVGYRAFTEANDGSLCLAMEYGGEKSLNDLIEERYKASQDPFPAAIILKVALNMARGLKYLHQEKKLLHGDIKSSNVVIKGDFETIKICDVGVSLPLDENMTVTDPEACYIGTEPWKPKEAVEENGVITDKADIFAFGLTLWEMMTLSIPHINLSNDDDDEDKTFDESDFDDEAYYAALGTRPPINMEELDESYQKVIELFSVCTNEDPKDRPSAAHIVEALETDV
UniProt P09619, whole entry: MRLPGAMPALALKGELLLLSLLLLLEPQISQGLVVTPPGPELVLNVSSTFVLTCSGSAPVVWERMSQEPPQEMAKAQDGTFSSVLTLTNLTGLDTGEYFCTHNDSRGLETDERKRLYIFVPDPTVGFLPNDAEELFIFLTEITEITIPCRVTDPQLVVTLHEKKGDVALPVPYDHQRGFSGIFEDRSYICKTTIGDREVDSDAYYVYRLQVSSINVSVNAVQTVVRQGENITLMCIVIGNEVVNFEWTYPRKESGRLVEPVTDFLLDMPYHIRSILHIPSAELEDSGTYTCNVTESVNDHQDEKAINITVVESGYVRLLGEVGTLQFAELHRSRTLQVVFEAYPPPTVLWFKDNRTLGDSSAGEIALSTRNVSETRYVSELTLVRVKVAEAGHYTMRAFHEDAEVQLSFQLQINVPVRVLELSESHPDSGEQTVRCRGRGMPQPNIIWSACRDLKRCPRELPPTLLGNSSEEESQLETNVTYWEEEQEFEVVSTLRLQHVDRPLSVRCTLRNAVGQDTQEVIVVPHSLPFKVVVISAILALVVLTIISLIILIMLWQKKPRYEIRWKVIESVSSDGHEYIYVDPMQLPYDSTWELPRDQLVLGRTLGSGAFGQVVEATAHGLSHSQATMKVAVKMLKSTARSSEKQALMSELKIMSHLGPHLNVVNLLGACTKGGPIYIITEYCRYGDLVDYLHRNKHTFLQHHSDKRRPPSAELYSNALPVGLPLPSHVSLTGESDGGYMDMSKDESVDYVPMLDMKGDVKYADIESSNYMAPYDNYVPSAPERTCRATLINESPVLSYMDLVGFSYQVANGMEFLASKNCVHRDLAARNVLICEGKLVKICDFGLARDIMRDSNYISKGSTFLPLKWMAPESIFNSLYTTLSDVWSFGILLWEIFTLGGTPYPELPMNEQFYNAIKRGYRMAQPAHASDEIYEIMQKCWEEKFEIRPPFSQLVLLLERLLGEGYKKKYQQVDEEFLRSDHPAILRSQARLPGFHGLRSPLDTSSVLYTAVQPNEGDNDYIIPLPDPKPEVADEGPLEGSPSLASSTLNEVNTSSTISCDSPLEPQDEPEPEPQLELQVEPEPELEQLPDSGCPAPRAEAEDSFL
UniProt Q15118, whole entry, looked up: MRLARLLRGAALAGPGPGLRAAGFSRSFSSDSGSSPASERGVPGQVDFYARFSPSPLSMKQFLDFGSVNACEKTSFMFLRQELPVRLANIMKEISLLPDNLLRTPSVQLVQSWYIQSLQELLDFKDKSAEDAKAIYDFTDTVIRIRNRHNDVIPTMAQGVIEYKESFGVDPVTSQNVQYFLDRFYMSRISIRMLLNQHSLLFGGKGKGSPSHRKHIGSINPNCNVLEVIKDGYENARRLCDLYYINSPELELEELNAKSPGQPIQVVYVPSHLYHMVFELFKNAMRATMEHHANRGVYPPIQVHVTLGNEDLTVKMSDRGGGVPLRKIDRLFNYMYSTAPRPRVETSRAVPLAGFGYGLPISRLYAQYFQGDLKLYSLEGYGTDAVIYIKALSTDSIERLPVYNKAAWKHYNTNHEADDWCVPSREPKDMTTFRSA

Legend:
Experiment in all cases: kinase-Nluc reporter destabilization hit call (1 = scored as downregulated) (binary); higher = compound decreases kinase abundance
Settings in all cases: K562; 2-18 h
MAPK1 = MAPK1 (UniProt P28482)
MAPK4 = MAPK4 (UniProt P31152)
MAPKAPK2 = MAPKAPK2 (UniProt P49137)
MKNK1 = MKNK1 (UniProt Q9BUB5)
NTRK2 = NTRK2 (UniProt Q16620)
NTRK3 = NTRK3 (UniProt Q16288)
PAK4 = PAK4 (UniProt O96013)
PBK = PBK (UniProt Q96KB5)
PDGFRB = PDGFRB (UniProt P09619)
PDK1 = PDK1 (UniProt Q15118)

Measured: kinase-Nluc reporter destabilization hit call

O=C(Nc1nc2ccc(NC(=O)C34CC5CC(CC(C5)C3)C4)cc2s1)c1ccccc1 (10 µM)
inactive: MAPK1 = 0 | MAPK4 = 0 | MAPKAPK2 = 0 | MKNK1 = 0 | NTRK2 = 0 | NTRK3 = 0 | PAK4 = 0 | PBK 0 | PDGFRB 0 | PDK1 = 0

Nc1ncnc2c1c(-c1ccc(Oc3ccccc3)cc1)nn2C1CCN(CCOCCOCCOc2ccc3c(c2)CN(C2CCC(=O)NC2=O)C3=O)CC1 (stereo not given) (2.5 µM)
inactive: MAPK1 = 0 | MAPK4 = 0 | MAPKAPK2 = 0 | MKNK1 = 0 | NTRK2 = 0 | NTRK3 = 0 | PAK4 = 0 | PBK 0 | PDGFRB 0 | PDK1 = 0

C[C@@H]1CN(c2cc(-c3n[nH]c4ccc(OC5(C)CC5)cc34)ncn2)C[C@H](C)O1 (10 µM)
inactive: MAPK1 = 0 | MAPK4 = 0 | MAPKAPK2 = 0 | MKNK1 = 0 | NTRK2 = 0 | NTRK3 = 0 | PAK4 = 0 | PBK 0 | PDGFRB 0 | PDK1 = 0

O=C(O)c1cc(N(Cc2ccccc2O)Cc2ccccc2O)ccc1O [Lavendustin B] (10 µM)
inactive: MAPK1 = 0 | MAPK4 = 0 | MAPKAPK2 = 0 | MKNK1 = 0 | NTRK2 = 0 | NTRK3 = 0 | PAK4 = 0 | PBK 0 | PDGFRB 0 | PDK1 = 0

Oc1ccc(/C=C/c2cc(O)cc(F)c2)cc1 [Resveratrol analog 1] (10 µM)
inactive: MAPK1 = 0 | MAPK4 = 0 | MAPKAPK2 = 0 | MKNK1 = 0 | NTRK2 = 0 | NTRK3 = 0 | PAK4 = 0 | PBK 0 | PDGFRB 0 | PDK1 = 0

COc1cc(-c2cn[nH]c2)ccc1C(=O)Nc1ccc2c(c1)CCNCC2 (10 µM)
inactive: MAPK1 = 0 | MAPK4 = 0 | MAPKAPK2 = 0 | MKNK1 = 0 | NTRK2 = 0 | NTRK3 = 0 | PAK4 = 0 | PBK 0 | PDGFRB 0 | PDK1 = 0

COc1ccc(-c2c(C)nn3c(NCCN4CCOCC4)cc(C)nc23)cc1OC (10 µM)
inactive: MAPK1 = 0 | MAPK4 = 0 | MAPKAPK2 = 0 | MKNK1 = 0 | NTRK2 = 0 | NTRK3 = 0 | PAK4 = 0 | PBK 0 | PDGFRB 0 | PDK1 = 0

CC(C)(O)[C@H]1CC[C@H](Nc2ccc3ncc(-c4cccc(C(F)(F)F)c4)n3n2)CC1 (10 µM)
inactive: MAPK1 = 0 | MAPK4 = 0 | MAPKAPK2 = 0 | MKNK1 = 0 | NTRK2 = 0 | NTRK3 = 0 | PAK4 = 0 | PBK 0 | PDGFRB 0 | PDK1 = 0

Retrieved one by one from the list above, 2 records:
Oc1ccc(/C=C/c2cc(O)cc(F)c2)cc1 [Resveratrol analog 1] (10 µM)
inactive: MAPK1 = 0 | MAPK4 = 0 | MAPKAPK2 = 0 | MKNK1 = 0 | NTRK2 = 0 | NTRK3 = 0 | PAK4 = 0 | PBK 0 | PDGFRB 0 | PDK1 = 0

COc1cc(-c2cn[nH]c2)ccc1C(=O)Nc1ccc2c(c1)CCNCC2 (10 µM)
inactive: MAPK1 = 0 | MAPK4 = 0 | MAPKAPK2 = 0 | MKNK1 = 0 | NTRK2 = 0 | NTRK3 = 0 | PAK4 = 0 | PBK 0 | PDGFRB 0 | PDK1 = 0

Additional results follow.

Cn1cc2cc(C(F)(F)c3nnc4ccc(-c5cnn(C6CC6)c5)nn34)c(F)cc2n1 [Bozitinib] (10 µM)
inactive: MAPK1 = 0 | MAPK4 = 0 | MAPKAPK2 = 0 | MKNK1 = 0 | NTRK2 = 0 | NTRK3 = 0 | PAK4 = 0 | PBK 0 | PDGFRB 0 | PDK1 = 0

CC(C)(C)n1nc(Cc2ccccc2O)c2c(N)ncnc21 (10 µM)
inactive: MAPK1 = 0 | MAPK4 = 0 | MAPKAPK2 = 0 | MKNK1 = 0 | NTRK2 = 0 | NTRK3 = 0 | PAK4 = 0 | PBK 0 | PDGFRB 0 | PDK1 = 0

CCc1cncnc1N1CCN(Cc2nc3ccc(C(F)(F)F)cc3[nH]2)CC1 (10 µM)
inactive: MAPK1 = 0 | MAPK4 = 0 | MAPKAPK2 = 0 | MKNK1 = 0 | NTRK2 = 0 | NTRK3 = 0 | PAK4 = 0 | PBK 0 | PDGFRB 0 | PDK1 = 0

COc1ccc(S(=O)(=O)NCc2ccc(C(=O)NCCc3ccc(Cl)cn3)cc2)cc1 (10 µM)
inactive: MAPK1 = 0 | MAPK4 = 0 | MAPKAPK2 = 0 | MKNK1 = 0 | NTRK2 = 0 | NTRK3 = 0 | PAK4 = 0 | PBK 0 | PDGFRB 0 | PDK1 = 0

C[C@@H]1CC(=O)c2c(ccc3c2C(=O)c2cccc(O)c2C3=O)C1 [Ochromycinone] (10 µM)
inactive: MAPK1 = 0 | MAPK4 = 0 | MAPKAPK2 = 0 | MKNK1 = 0 | NTRK2 = 0 | NTRK3 = 0 | PAK4 = 0 | PBK 0 | PDGFRB 0 | PDK1 = 0

C=CC(=O)Nc1cccc(-c2cccc3cnc(Nc4ccc(N5CCN(CCO)CC5)c(F)c4F)nc23)c1 [Olafertinib] (2.5 µM)
inactive: MAPK1 = 0 | MAPK4 = 0 | MAPKAPK2 = 0 | MKNK1 = 0 | NTRK2 = 0 | NTRK3 = 0 | PAK4 = 0 | PBK 0 | PDGFRB 0 | PDK1 = 0

O=C(NC1CCOCC1)c1ccc(-c2cc(-c3c[nH]nc3-c3ccccn3)ccn2)cc1 (10 µM)
inactive: MAPK1 = 0 | MAPK4 = 0 | MAPKAPK2 = 0 | MKNK1 = 0 | NTRK2 = 0 | NTRK3 = 0 | PAK4 = 0 | PBK 0 | PDGFRB 0 | PDK1 = 0

CCOC(=O)N1C/C(=C/c2ccccc2F)C(=O)/C(=C\c2ccccc2F)C1 (2.5 µM)
inactive: MAPK1 = 0 | MAPK4 = 0 | MAPKAPK2 = 0 | MKNK1 = 0 | NTRK2 = 0 | NTRK3 = 0 | PAK4 = 0 | PBK 0 | PDGFRB 0 | PDK1 = 0

CC(C)CNc1ccnc(NCc2csc(-c3ccccc3)n2)n1 [KHS101 hydrochloride] (2.5 µM)
inactive: MAPK1 = 0 | MAPK4 = 0 | MAPKAPK2 = 0 | MKNK1 = 0 | NTRK2 = 0 | NTRK3 = 0 | PAK4 = 0 | PBK 0 | PDGFRB 0 | PDK1 = 0

N#Cc1c2nc3ccccc3nc2n2ccc(NC(=O)c3cccs3)cc12 (10 µM)
inactive: MAPK1 = 0 | MAPK4 = 0 | MAPKAPK2 = 0 | MKNK1 = 0 | NTRK2 = 0 | NTRK3 = 0 | PAK4 = 0 | PBK 0 | PDGFRB 0 | PDK1 = 0

COc1cc2ncnc(Nc3ccc(F)c(Cl)c3)c2cc1NC(=O)/C=C/CN1CCCCC1 [Dacomitinib] (10 µM)
inactive: MAPK1 = 0 | MAPK4 = 0 | MAPKAPK2 = 0 | MKNK1 = 0 | NTRK2 = 0 | NTRK3 = 0 | PAK4 = 0 | PBK 0 | PDGFRB 0 | PDK1 = 0

CCCNC(=O)Nc1ccc(Oc2ncnc3cc(OC)c(OC)cc23)cc1Cl (2.5 µM)
inactive: MAPK1 = 0 | MAPK4 = 0 | MAPKAPK2 = 0 | MKNK1 = 0 | NTRK2 = 0 | NTRK3 = 0 | PAK4 = 0 | PBK 0 | PDGFRB 0 | PDK1 = 0

CCN(CC)c1cc2oc(=O)c(-c3nc4ccccc4o3)cc2cc1C (2.5 µM)
inactive: MAPK1 = 0 | MAPK4 = 0 | MAPKAPK2 = 0 | MKNK1 = 0 | NTRK2 = 0 | NTRK3 = 0 | PAK4 = 0 | PBK 0 | PDGFRB 0 | PDK1 = 0

Cc1cnc(-c2ccc(-c3ccc(NC(=O)Nc4cccc(C(F)(F)F)c4)cc3F)c3c2C(=O)NC3)[nH]1 (10 µM)
inactive: MAPK1 = 0 | MAPK4 = 0 | MAPKAPK2 = 0 | MKNK1 = 0 | NTRK2 = 0 | NTRK3 = 0 | PAK4 = 0 | PBK 0 | PDGFRB 0 | PDK1 = 0

Cc1ncc(NC(=O)NC2c3ccccc3-c3ccccc32)c(-c2ccccc2)n1 (10 µM)
inactive: MAPK1 = 0 | MAPK4 = 0 | MAPKAPK2 = 0 | MKNK1 = 0 | NTRK2 = 0 | NTRK3 = 0 | PAK4 = 0 | PBK 0 | PDGFRB 0 | PDK1 = 0

NC(=S)n1[nH]c(-c2ccc([N+](=O)[O-])cc2)c(N=Nc2cccc(Cl)c2)c1=O (2.5 µM)
inactive: MAPK1 = 0 | MAPK4 = 0 | MAPKAPK2 = 0 | MKNK1 = 0 | NTRK2 = 0 | NTRK3 = 0 | PAK4 = 0 | PBK 0 | PDGFRB 0 | PDK1 = 0

O=c1cc(-c2cccc3c2Sc2ccccc2S3)oc(N2CCOCC2)c1 (10 µM)
inactive: MAPK1 = 0 | MAPK4 = 0 | MAPKAPK2 = 0 | MKNK1 = 0 | NTRK2 = 0 | NTRK3 = 0 | PAK4 = 0 | PBK 0 | PDGFRB 0 | PDK1 = 0

Cn1cc(-c2cnc3cnn(S(=O)(=O)c4cnc5ccc(-c6cnn(C)c6)cn45)c3c2)cn1 [Glumetinib] (10 µM)
inactive: MAPK1 = 0 | MAPK4 = 0 | MAPKAPK2 = 0 | MKNK1 = 0 | NTRK2 = 0 | NTRK3 = 0 | PAK4 = 0 | PBK 0 | PDGFRB 0 | PDK1 = 0

COc1cc(N(C)CCN(C)C)c(N)cc1Nc1nccc(-c2cn(C)c3ccccc23)n1 [Mutated EGFR-IN-1] (10 µM)
inactive: MAPK1 = 0 | MAPK4 = 0 | MAPKAPK2 = 0 | MKNK1 = 0 | NTRK2 = 0 | NTRK3 = 0 | PAK4 = 0 | PBK 0 | PDGFRB 0 | PDK1 = 0

Cc1ccc(-c2csc3ncnc(SCCC(=O)O)c23)cc1 (10 µM)
inactive: MAPK1 = 0 | MAPK4 = 0 | MAPKAPK2 = 0 | MKNK1 = 0 | NTRK2 = 0 | NTRK3 = 0 | PAK4 = 0 | PBK 0 | PDGFRB 0 | PDK1 = 0

Cc1cccc(-c2[nH]c(C(C)(C)C)nc2-c2ccc3nccnc3c2)n1 (10 µM)
inactive: MAPK1 = 0 | MAPK4 = 0 | MAPKAPK2 = 0 | MKNK1 = 0 | NTRK2 = 0 | NTRK3 = 0 | PAK4 = 0 | PBK 0 | PDGFRB 0 | PDK1 = 0

CC[C@@](C)(Nc1ccnc(-c2c[nH]c3ncccc23)n1)C(=O)NCC(F)(F)F [Decernotinib] (10 µM)
inactive: MAPK1 = 0 | MAPK4 = 0 | MAPKAPK2 = 0 | MKNK1 = 0 | NTRK2 = 0 | NTRK3 = 0 | PAK4 = 0 | PBK 0 | PDGFRB 0 | PDK1 = 0
